Assay results published in paper PMC3039673.
Results are given in words; binding and its absence hold for the method and conditions named. Binding seen in cells or lysates may run through a third protein. Some entries that bind do so weakly or less than the wild type.

Chains of the proteins cited; added tags and fusions are not shown.
UniProt P84022: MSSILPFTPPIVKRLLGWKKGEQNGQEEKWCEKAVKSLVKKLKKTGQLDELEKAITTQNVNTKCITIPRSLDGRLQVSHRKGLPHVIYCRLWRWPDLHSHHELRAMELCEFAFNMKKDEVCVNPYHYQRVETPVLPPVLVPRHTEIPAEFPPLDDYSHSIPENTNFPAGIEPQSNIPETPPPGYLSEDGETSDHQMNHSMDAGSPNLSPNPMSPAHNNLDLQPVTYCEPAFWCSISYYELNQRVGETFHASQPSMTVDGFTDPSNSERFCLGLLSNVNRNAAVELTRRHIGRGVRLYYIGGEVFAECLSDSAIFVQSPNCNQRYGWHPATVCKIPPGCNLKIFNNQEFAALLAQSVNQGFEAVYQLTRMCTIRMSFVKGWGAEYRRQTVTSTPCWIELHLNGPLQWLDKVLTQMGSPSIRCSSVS
UniProt Q13485: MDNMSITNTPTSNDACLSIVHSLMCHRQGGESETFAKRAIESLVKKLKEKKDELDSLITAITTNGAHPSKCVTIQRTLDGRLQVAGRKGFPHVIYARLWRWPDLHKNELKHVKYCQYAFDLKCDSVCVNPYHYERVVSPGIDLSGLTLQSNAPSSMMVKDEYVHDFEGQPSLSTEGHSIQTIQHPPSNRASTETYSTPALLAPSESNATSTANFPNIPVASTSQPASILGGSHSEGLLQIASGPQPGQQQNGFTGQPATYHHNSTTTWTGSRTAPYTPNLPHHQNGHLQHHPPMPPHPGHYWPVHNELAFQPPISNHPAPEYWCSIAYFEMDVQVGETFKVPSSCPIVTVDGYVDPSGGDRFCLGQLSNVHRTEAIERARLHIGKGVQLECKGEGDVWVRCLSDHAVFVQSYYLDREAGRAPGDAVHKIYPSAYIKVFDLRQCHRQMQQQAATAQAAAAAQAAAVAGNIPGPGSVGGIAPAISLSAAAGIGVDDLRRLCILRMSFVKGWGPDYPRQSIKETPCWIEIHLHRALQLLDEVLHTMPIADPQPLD

How the values were obtained:
[1] = target: T1, Ski (human (endogenous in MDA-MB-231)) (UniProt P12755); test: co-IP; endogenous proteins; MDA-MB-231 cells preincubated 3 h with 50 uM MG132, induced or not with 2 ng/ml TGF-beta for 1 h; lysed in 150 mM co-IP buffer; IP with antibodies against Smad4, SNW1 or Ski, beads alone as negative control; Western blot
T1 sequence: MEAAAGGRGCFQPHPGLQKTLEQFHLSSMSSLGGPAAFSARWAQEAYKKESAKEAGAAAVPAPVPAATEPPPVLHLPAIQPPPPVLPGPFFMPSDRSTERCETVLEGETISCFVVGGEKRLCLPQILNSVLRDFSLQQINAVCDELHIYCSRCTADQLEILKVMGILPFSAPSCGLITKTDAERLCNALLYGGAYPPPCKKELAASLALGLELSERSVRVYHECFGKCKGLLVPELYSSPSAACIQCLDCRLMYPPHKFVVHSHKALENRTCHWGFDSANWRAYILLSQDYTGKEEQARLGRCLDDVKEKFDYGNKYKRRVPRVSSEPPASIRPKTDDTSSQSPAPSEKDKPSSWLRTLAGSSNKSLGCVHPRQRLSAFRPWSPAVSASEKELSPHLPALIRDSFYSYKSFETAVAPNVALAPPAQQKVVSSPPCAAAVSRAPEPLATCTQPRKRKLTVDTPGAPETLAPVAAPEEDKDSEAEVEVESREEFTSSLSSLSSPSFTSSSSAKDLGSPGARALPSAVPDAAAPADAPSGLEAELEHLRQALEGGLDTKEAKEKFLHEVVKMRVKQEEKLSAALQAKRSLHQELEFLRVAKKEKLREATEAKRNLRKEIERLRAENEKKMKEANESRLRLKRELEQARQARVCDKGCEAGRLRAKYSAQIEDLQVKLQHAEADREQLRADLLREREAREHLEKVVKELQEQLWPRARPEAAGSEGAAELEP

[2] = target: T2, SNW1 (human (endogenous in MDA-MB-231)) (UniProt Q13573); test: as above
T2 sequence: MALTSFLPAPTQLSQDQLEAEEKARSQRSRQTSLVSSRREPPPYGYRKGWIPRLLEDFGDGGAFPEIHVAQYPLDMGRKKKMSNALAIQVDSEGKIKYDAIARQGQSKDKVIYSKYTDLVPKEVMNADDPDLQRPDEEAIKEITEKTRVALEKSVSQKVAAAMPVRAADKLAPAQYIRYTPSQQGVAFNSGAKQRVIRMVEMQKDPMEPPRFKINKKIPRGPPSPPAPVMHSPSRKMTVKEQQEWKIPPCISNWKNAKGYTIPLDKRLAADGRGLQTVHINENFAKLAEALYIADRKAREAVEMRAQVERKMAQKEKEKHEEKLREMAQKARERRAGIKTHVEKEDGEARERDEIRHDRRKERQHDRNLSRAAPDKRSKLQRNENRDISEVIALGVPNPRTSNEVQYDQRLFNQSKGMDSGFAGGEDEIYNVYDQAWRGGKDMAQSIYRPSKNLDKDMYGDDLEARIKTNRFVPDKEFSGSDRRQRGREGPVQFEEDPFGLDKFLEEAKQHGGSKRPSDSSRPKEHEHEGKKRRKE

binding [1] | binding [2] | Substance
binds |  | Smad3 (from UniProt P84022 1-425)
binds | no binding | Smad4 (from UniProt Q13485 1-552)
